In publication PMC5431167:
Results are given in words; binding and its absence hold for the method and conditions named. In cells and extracts the contact can be indirect. A yes stands for co-enrichment or nearness to the bait. Other partners may have been found. Tags and fused reporters may be left off the sequences shown.

By UniProt entry, the sequences of proteins in these tests, tags left out. Residues count along the entry.
UniProt P51148: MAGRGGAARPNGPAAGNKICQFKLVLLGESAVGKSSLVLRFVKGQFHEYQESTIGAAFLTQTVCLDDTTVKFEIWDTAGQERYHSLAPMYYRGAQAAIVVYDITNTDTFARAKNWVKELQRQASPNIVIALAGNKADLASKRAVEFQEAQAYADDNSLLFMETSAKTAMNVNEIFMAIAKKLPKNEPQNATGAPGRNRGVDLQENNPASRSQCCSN
UniProt Q03135: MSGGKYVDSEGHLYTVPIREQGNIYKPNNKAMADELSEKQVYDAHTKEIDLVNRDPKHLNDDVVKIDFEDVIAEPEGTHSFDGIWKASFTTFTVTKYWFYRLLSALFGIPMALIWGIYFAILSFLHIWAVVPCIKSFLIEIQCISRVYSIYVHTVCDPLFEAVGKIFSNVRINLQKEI
UniProt P25705, residues 44-553: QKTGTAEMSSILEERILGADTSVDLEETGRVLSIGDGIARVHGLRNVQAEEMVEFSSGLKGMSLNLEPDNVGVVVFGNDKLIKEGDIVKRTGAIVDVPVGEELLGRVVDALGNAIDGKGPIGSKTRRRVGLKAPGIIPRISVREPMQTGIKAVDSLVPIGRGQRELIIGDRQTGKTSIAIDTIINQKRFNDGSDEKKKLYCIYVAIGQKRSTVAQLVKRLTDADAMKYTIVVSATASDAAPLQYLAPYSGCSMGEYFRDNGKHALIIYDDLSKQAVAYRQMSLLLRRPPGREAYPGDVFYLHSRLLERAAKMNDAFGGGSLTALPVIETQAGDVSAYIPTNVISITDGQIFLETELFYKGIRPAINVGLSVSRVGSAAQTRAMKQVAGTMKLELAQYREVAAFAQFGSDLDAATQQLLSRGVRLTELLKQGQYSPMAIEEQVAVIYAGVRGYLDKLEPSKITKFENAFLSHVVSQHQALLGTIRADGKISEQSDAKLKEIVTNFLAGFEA
UniProt P20339: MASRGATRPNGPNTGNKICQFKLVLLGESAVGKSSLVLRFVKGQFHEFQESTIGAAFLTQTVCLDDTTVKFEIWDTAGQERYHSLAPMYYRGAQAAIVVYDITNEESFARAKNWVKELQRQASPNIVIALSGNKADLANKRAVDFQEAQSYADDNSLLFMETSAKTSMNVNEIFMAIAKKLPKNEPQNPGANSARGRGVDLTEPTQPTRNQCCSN
UniProt P05067, residues 18-770: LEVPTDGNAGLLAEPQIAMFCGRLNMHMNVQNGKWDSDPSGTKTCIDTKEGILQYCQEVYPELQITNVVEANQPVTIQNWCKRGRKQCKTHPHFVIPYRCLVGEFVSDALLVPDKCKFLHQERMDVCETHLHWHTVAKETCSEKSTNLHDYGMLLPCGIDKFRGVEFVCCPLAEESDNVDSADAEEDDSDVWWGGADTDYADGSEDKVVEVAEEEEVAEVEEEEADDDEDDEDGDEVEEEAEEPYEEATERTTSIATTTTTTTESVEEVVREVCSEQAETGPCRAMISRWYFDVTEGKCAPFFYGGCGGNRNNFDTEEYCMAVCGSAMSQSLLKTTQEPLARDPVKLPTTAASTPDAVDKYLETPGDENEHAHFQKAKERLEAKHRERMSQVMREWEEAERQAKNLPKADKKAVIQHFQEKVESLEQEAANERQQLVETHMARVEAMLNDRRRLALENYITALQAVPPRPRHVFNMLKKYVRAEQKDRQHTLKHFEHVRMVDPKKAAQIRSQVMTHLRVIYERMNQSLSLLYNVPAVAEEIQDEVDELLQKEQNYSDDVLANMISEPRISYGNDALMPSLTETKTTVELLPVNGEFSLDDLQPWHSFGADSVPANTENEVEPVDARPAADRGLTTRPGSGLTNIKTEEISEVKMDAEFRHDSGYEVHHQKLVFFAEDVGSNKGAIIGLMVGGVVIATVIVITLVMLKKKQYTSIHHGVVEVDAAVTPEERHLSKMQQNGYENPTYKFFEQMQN
UniProt P61019: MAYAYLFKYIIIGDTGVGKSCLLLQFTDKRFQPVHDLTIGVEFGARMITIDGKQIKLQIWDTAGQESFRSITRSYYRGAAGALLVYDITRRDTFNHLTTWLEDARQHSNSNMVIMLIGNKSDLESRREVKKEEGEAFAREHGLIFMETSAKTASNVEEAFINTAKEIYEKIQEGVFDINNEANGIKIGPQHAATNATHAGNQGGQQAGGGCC
UniProt P20340: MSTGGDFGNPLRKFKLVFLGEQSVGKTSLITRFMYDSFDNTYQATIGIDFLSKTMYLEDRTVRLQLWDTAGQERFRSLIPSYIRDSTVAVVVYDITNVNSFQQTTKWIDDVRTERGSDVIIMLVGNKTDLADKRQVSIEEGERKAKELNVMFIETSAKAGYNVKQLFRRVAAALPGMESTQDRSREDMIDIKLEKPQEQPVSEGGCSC
UniProt P35908: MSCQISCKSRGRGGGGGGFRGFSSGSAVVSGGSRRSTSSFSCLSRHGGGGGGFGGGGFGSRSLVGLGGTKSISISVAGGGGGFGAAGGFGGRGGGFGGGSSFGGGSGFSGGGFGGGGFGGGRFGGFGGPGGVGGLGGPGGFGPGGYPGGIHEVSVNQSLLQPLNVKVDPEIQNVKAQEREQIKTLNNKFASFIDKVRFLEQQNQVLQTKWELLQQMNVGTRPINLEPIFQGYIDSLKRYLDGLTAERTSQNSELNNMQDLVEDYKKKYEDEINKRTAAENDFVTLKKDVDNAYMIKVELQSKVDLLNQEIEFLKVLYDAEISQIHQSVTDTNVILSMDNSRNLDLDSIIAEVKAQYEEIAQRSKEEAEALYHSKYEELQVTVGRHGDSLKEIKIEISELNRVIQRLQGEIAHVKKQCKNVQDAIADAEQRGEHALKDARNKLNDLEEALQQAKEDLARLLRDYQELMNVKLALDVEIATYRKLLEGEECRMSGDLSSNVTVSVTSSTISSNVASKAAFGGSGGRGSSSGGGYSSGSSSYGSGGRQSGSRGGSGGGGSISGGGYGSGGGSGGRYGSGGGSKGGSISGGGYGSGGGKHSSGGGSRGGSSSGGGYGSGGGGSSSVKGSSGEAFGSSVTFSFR

T1: recombinant flagellar hook protein FlgE of Pseudomonas aeruginosa PAO1 (Pseudomonas aeruginosa PAO1) (UniProt Q9I4P9)
T1 sequence: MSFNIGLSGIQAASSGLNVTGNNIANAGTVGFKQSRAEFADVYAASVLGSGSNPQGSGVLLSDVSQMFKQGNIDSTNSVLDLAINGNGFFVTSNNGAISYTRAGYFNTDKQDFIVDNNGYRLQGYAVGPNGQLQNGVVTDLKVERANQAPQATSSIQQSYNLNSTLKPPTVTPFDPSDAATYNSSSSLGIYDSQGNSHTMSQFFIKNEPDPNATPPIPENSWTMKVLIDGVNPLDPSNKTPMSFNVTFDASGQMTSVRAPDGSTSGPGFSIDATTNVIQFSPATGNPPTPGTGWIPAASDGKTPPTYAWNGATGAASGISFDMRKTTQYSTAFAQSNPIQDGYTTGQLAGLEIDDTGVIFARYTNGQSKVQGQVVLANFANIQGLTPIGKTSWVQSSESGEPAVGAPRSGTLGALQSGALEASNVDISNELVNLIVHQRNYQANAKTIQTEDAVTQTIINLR

B1: human hydroxysteroid sulfotransferase (protein, UniProt Q06520 1-285)
chain: MSDDFLWFEGIAFPTMGFRSETLRKVRDEFVIRDEDVIILTYPKSGTNWLAEILCLMHSKGDAKWIQSVPIWERSPWVESEIGYTALSETESPRLFSSHLPIQLFPKSFFSSKAKVIYLMRNPRDVLVSGYFFWKNMKFIKKPKSWEEYFEWFCQGTVLYGSWFDHIHGWMPMREEKNFLLLSYEELKQDTGRTIEKICQFLGKTLEPEELNLILKNSSFQSMKENKMSNYSLLSVDYVVDKAQLLRKGVSGDWKNHFTVAQAEDFDKLFQEKMADLPRELFPWE
B2: ATP synthase subunit O, mitochondrial precursor (protein, UniProt P48047 24-213)
chain: FAKLVRPPVQVYGIEGRYATALYSAASKQNKLEQVEKELLRVAQILKEPKVAASVLNPYVKRSIKVKSLNDITAKERFSPLTTNLINLLAENGRLSNTQGVVSAFSTMMSVHRGEVPCTVTSASPLEEATLSELKTVLKSFLSQGQVLKLEAKTDPSILGGMIVRIGEKYVDMSVKTKIQKLGRAMREIV
B3: Ras family small GTP binding protein RALA (protein, UniProt P11233 1-206)
chain: MAANKPKGQNSLALHKVIMVGSGGVGKSALTLQFMYDEFVEDYEPTKADSYRKKVVLDGEEVQIDILDTAGQEDYAAIRDNYFRSGEGFLCVFSITEMESFAATADFREQILRVKEDENVPFLLVGNKSDLEDKRQVSVEEAKNRAEQWNVNYVETSAKTRANVDKVFFDLMREIRARKMEDSKEKNGKKKRKSLAKRIRERCCIL
B4: Ras-related protein Rab-5B isoform 1 (protein, UniProt P61020 1-215)
chain: MTSRSTARPNGQPQASKICQFKLVLLGESAVGKSSLVLRFVKGQFHEYQESTIGAAFLTQSVCLDDTTVKFEIWDTAGQERYHSLAPMYYRGAQAAIVVYDITNQETFARAKTWVKELQRQASPSIVIALAGNKADLANKRMVEYEEAQAYADDNSLLFMETSAKTAMNVNDLFLAIAKKLPKSEPQNLGGAAGRSRGVDLHEQSQQNKSQCCSN
B5: Cytokeratin 9 (protein, UniProt P35527 1-623)
chain: MSCRQFSSSYLSRSGGGGGGGLGSGGSIRSSYSRFSSSGGGGGGGRFSSSSGYGGGSSRVCGRGGGGSFGYSYGGGSGGGFSASSLGGGFGGGSRGFGGASGGGYSSSGGFGGGFGGGSGGGFGGGYGSGFGGFGGFGGGAGGGDGGILTANEKSTMQELNSRLASYLDKVQALEEANNDLENKIQDWYDKKGPAAIQKNYSPYYNTIDDLKDQIVDLTVGNNKTLLDIDNTRMTLDDFRIKFEMEQNLRQGVDADINGLRQVLDNLTMEKSDLEMQYETLQEELMALKKNHKEEMSQLTGQNSGDVNVEINVAPGKDLTKTLNDMRQEYEQLIAKNRKDIENQYETQITQIEHEVSSSGQEVQSSAKEVTQLRHGVQELEIELQSQLSKKAALEKSLEDTKNRYCGQLQMIQEQISNLEAQITDVRQEIECQNQEYSLLLSIKMRLEKEIETYHNLLEGGQEDFESSGAGKIGLGGRGGSGGSYGRGSRGGSGGSYGGGGSGGGYGGGSGSRGGSGGSYGGGSGSGGGSGGGYGGGSGGGHSGGSGGGHSGGSGGNYGGGSGSGGGSGGGYGGGSGSRGGSGGSHGGGSGFGGESGGSYGGGEEASGSGGGYGGGSGKSSHS
B6: Ras-related protein Ral-B (protein, UniProt P11234 1-206)
chain: MAANKSKGQSSLALHKVIMVGSGGVGKSALTLQFMYDEFVEDYEPTKADSYRKKVVLDGEEVQIDILDTAGQEDYAAIRDNYFRSGEGFLLVFSITEHESFTATAEFREQILRVKAEEDKIPLLVVGNKSDLEERRQVPVEEARSKAEEWGVQYVETSAKTRANVDKVFFDLMREIRTKKMSENKDKNGKKSSKNKKSFKERCCLL

molecular target: T1, recombinant flagellar hook protein FlgE of Pseudomonas aeruginosa PAO1 (Pseudomonas aeruginosa PAO1); assay: affinity purification with mass spectrometry; 500 μg purified His-tagged FlgE held on 100 μL His-agarose (nickel) beads; total membrane proteins of ~10^8 HCECs incubated in 300 μL PBS at 4 °C for 8 h; five PBS washes; eluted with 0.2 M glycine-HCl; six SDS-PAGE bands differing from the empty-bead control cut, trypsin, nano-LC-MS/MS, MASCOT score >= 114; only the target purified

Molecule	binding
Rab5c-like protein, similar to Canis familiaris Rab5c protein (from UniProt P51148 1-216)	binds
Caveolin-1 (from UniProt Q03135 1-178)	binds
ATP synthase subunit beta, mitochondrial precursor (from UniProt P06576 48-529)	binds
ATP synthase subunit alpha, mitochondrial isoform a precursor (from UniProt P25705 44-553)	binds
Ras-related protein Rab-5A (from UniProt P20339 1-215)	binds
amyloid preprotein (App) (from UniProt P05067 18-770)	binds
Ras-related protein Rab-2A isoform a (from UniProt P61019 1-212)	binds
Ras-related protein Rab-6A isoform a (from UniProt P20340 1-208)	binds
Epidermal cytokeratin 2 (from UniProt P35908 1-639)	binds
B1	binds
B2	binds
B3	binds
B4	binds
B5	binds
B6	binds
